From publication PMC12541429
These are yes or no findings as the source states them, for the method shown. Binding seen in cells or lysates may run through a third protein. A result given as binding can be weak or reduced; the word gives no strength. Sequences can lack the tags named with a protein.

Target: T1, GST-EFCAB10 (mouse) (UniProt Q9D581)
T1 sequence: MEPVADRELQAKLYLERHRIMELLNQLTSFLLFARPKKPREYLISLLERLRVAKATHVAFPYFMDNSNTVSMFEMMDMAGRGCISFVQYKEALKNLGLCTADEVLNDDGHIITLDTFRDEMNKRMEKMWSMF
Test: pull-down; GST or GST-EFCAB10 bound to glutathione agarose beads, incubated with the supernatant of E. coli expressing HisMBP-tagged AK8 fragment, 4 h at 4 °C; low-salt lysis buffer (20 mM Tris-HCl, 100 mM KCl, 0.1% NP-40, 1 mM EDTA, 10% glycerol, 10 mM sodium pyrophosphate, pH 7.5); only the target purified

binding: binds
Substance: His-MBP-AK8 N-terminus fragment (mouse) (domain or fragment)
